We go through 40 targets from the supplement of paper PMC10849652.

The chains behind the UniProt entries cited, without tags or fusion partners. Where a name states a change or a piece, a line headed by the entry shows the natural chain unless it says otherwise.
UniProt P16989, whole entry, looked up: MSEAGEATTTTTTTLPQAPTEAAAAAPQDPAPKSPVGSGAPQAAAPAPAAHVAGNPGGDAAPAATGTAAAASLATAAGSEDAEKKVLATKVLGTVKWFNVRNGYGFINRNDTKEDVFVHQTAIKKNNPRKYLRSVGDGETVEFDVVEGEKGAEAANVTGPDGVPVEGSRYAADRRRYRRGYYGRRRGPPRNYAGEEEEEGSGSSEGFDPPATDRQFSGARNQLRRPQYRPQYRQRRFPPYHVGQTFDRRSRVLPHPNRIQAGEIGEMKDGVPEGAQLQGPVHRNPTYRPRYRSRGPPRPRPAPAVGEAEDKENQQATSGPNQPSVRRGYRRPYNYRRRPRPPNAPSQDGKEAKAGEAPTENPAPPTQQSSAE
UniProt Q9GZM5: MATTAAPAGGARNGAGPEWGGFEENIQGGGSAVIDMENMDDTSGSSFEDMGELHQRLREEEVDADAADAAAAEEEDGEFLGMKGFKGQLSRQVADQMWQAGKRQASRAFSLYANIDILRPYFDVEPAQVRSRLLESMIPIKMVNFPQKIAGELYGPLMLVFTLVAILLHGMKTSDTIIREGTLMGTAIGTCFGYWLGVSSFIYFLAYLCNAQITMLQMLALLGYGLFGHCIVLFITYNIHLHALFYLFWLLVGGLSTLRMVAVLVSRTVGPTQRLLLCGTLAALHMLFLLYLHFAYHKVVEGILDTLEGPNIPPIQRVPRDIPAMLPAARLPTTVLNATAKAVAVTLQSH
UniProt Q8IX07: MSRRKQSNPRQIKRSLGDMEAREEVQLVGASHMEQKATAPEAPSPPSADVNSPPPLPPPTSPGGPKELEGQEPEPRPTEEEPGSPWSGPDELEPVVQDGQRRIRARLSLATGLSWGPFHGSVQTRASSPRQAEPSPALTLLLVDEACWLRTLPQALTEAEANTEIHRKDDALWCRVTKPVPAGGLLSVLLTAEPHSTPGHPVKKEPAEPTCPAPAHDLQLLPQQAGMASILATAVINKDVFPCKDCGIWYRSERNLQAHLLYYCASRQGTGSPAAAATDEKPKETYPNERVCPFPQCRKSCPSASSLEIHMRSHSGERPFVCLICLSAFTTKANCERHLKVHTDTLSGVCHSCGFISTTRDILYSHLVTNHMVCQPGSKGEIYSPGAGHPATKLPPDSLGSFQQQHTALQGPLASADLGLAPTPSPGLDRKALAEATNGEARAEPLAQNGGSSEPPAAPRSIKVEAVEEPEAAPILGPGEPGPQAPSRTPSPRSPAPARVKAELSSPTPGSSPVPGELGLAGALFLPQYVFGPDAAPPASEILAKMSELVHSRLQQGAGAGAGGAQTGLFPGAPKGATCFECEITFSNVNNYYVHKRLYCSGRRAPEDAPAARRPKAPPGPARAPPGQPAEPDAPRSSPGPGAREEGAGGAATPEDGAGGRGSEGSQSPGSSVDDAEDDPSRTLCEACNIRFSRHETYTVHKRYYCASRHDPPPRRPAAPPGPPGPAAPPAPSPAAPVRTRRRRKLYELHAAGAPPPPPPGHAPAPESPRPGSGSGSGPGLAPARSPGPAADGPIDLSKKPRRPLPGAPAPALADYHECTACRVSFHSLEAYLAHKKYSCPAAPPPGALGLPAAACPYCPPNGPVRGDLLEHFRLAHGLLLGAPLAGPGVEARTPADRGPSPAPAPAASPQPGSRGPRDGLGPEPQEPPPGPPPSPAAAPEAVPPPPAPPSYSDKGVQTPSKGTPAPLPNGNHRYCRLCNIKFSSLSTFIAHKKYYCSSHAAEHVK
UniProt Q8WV99: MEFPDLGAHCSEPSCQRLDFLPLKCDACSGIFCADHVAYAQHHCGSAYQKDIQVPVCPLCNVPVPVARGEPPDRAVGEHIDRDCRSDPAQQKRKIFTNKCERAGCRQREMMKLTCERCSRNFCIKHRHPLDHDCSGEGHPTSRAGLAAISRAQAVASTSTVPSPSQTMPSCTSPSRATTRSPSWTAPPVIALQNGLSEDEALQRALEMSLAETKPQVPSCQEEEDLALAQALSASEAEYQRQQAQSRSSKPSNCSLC
UniProt Q9NUD5: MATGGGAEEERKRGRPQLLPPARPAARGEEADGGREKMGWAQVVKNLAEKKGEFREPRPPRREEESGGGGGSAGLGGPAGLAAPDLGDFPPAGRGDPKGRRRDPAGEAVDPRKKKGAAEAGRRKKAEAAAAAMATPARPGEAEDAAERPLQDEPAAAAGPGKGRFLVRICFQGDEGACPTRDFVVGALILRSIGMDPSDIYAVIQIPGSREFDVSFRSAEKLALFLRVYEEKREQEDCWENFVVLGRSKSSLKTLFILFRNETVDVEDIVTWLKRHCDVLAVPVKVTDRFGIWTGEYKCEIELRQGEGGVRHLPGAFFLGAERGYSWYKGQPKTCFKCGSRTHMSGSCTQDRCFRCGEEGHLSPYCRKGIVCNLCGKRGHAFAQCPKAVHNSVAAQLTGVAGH
UniProt Q969M3: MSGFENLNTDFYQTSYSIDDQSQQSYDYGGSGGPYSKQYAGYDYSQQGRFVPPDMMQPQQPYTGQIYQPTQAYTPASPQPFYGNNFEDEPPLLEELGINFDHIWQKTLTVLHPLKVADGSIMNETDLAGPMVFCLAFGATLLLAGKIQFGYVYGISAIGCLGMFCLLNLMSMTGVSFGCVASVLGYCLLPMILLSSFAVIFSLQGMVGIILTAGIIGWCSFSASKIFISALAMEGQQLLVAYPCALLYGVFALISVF
UniProt Q9UPT8: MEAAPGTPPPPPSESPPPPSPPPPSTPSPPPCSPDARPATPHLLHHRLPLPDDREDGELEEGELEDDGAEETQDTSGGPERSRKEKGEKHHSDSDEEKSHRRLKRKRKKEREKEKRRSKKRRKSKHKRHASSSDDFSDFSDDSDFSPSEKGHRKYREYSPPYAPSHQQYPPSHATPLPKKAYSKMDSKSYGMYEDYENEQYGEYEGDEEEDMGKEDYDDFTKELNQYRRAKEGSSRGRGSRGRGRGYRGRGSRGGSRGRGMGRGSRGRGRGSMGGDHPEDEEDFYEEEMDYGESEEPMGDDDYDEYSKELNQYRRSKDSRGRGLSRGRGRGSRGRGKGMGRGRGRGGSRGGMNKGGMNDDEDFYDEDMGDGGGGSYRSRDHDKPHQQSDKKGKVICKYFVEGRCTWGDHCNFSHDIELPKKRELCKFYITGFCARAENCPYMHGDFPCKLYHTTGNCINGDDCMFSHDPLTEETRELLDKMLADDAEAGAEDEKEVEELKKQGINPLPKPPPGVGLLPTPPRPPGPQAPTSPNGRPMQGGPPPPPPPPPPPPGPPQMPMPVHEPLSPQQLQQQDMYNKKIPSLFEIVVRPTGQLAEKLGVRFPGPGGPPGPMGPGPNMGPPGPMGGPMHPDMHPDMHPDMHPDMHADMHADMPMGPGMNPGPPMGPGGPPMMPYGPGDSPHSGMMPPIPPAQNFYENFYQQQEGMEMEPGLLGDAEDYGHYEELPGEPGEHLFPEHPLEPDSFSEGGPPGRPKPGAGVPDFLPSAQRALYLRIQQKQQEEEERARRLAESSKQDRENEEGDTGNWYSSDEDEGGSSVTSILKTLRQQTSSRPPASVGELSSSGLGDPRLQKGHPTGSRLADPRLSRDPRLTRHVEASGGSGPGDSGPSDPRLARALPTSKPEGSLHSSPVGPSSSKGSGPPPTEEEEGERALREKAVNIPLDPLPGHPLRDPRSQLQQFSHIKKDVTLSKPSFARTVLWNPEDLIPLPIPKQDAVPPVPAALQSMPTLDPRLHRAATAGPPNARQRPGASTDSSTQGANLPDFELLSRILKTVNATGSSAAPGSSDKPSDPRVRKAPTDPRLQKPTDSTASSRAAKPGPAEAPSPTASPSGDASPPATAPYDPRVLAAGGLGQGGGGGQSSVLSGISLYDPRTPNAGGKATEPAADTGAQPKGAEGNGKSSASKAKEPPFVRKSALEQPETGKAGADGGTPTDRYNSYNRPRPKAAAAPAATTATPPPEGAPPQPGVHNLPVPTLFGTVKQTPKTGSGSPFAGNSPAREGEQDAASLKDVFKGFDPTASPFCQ
UniProt Q9BW85: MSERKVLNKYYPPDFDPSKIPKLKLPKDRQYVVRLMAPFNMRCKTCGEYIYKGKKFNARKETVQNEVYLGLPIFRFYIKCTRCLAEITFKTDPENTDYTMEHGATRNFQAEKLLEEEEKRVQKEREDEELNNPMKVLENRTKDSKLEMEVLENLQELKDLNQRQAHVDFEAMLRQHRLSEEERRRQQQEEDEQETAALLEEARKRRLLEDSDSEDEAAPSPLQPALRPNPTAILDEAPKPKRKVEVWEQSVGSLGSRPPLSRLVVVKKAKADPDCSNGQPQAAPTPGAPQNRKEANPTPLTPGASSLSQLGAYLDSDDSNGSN
UniProt Q96EC8: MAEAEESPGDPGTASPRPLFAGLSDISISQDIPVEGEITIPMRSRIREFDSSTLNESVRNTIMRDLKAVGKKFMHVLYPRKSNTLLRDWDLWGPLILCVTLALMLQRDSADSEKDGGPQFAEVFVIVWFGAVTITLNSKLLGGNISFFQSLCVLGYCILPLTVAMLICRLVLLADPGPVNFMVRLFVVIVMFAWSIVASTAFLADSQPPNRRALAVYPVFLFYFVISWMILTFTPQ
UniProt Q6FIF0: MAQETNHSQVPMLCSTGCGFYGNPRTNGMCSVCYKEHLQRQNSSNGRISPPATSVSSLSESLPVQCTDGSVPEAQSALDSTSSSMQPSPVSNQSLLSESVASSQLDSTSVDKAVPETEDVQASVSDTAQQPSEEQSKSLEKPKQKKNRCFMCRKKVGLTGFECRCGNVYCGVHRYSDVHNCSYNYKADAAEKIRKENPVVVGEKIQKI
UniProt O96006: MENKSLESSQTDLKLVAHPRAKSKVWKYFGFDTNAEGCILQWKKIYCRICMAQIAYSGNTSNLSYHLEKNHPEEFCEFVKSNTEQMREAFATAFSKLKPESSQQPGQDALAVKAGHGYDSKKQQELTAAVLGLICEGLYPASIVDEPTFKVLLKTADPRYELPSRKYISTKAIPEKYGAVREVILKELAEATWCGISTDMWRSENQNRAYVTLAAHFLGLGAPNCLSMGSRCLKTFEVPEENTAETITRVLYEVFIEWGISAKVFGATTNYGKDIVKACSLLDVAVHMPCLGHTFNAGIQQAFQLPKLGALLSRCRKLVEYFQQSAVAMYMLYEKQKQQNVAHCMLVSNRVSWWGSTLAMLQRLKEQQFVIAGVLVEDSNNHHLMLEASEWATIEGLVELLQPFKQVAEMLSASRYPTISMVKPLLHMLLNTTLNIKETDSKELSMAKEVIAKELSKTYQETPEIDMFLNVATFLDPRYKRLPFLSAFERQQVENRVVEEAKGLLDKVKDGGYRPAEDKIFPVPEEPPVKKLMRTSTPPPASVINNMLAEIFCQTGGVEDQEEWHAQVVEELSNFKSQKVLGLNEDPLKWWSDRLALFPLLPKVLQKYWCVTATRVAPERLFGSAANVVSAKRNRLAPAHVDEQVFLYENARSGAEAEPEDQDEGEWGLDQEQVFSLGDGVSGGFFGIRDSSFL
UniProt P12956: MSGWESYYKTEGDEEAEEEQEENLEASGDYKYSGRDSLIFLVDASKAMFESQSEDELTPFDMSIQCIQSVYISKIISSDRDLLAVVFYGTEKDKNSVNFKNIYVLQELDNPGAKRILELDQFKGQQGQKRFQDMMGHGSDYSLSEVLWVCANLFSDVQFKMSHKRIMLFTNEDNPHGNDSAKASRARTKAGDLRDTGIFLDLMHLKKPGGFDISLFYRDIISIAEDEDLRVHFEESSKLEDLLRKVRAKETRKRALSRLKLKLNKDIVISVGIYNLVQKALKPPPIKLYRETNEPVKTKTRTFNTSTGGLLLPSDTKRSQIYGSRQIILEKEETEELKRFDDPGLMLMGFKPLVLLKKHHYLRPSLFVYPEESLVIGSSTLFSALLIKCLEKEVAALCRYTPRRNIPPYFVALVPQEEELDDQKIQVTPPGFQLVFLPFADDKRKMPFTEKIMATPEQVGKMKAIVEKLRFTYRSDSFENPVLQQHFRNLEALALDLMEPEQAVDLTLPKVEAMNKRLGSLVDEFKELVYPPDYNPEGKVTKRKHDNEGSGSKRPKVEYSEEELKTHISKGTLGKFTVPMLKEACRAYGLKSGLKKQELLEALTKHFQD
UniProt Q9BSR8: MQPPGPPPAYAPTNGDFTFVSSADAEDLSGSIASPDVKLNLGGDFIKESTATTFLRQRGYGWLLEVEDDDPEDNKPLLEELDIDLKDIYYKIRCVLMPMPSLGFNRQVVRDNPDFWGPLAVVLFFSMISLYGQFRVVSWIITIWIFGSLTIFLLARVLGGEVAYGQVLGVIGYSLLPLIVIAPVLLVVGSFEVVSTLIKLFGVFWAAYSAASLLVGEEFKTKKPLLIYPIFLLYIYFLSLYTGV
UniProt A8MPS7: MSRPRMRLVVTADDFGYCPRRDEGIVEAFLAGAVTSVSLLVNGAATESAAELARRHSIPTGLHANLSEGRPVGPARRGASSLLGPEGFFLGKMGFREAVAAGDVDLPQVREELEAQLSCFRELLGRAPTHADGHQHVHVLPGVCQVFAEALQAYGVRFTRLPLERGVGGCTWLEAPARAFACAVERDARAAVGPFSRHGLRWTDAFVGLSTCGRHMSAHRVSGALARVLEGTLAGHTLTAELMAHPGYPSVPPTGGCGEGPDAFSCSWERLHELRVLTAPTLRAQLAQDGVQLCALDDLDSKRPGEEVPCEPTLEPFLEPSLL

The list shows a part of the results.

Compound in one assay: Cc1cn(-c2cc(NC(=O)c3ccc(C)c(Nc4nccc(-c5cccnc5)n4)c3)cc(C(F)(F)F)c2)cn1 [nilotinib]
As to the kind of experiment: log2 fold change, soluble protein after heating vs DMSO (PISA); higher = thermal stabilisation; K562 lysate, 10 uM; active = over 0.2 and 3.5 SD of the protein, either way, in both replicates (recomputed). The essentials:
(§1)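 K562 pellets were dounce-homogenised in PBS pH 7.4 containing 1 mM MgCl2, and the crude extract, at 1 mg/mL protein, was exposed to 10 μM compound for 30 min. Aliquots were heated for 3 min across 48°C-58°C, pooled, brought to 0.5% NP-40 at 4°C and spun at 21,000xg for 90 min, with the supernatant taken as soluble protein. TMTpro 16plex LC-MS/MS with equalised channel sums quantified that protein. Values are log-two fold changes in thermal stability relative to solvent controls, taken from duplicates.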
Turning to YBX3 (UniProt P16989), the log2 fold change was inactive: -0.013.
With ZBED8 (UniProt Q8IZ13), the log2 fold change was inactive: -0.018.
XPO7 (UniProt Q9UIA9): the log2 fold change is inactive: 0.015.
For the target YIPF3 (UniProt Q9GZM5), the log2 fold change is inactive: -0.044.
Regarding XPO6 (UniProt Q96QU8), the log2 fold change is inactive: 0.005.
In the case of ZDHHC3 isoform 2 (UniProt Q9NYG2), the log2 fold change is inactive: 0.113.
Regarding ZFPM1 (UniProt Q8IX07), the log2 fold change was inactive: 0.036.
Take YES1 (UniProt P07947): the log2 fold change was inactive: 0.043.
Consider ZFAND2B (UniProt Q8WV99), for which the log2 fold change is inactive: -0.072.
On to XPO1 (UniProt O14980), for which the log2 fold change was inactive: 0.011.
As for ZCCHC3 (UniProt Q9NUD5), the log2 fold change is inactive: -0.031.
As to YIPF5 isoform 3 (UniProt Q969M3), the log2 fold change was inactive: -0.115.
With ZC3H18 (UniProt E7ERS3), the log2 fold change was inactive: -0.013.
Turning to YBX3 isoform 2 (UniProt P16989), the log2 fold change is inactive: -0.032.
For the target ZC3H4 (UniProt Q9UPT8), the log2 fold change is inactive: 0.035.
Regarding YJU2 (UniProt Q9BW85), the log2 fold change was inactive: 0.023.
ZC3H15 (UniProt Q8WU90): the log2 fold change was inactive: 0.006.
On to YIPF6 (UniProt Q96EC8), for which the log2 fold change is inactive: 0.213.
Turning to XRCC1 (UniProt P18887), the log2 fold change was inactive: -0.01.
Turning to ZFR (UniProt Q96KR1), the log2 fold change is inactive: -0.099.
For YME1L1 (UniProt Q96TA2), the log2 fold change was inactive: 0.011.
With YTHDC2 (UniProt Q9H6S0), the log2 fold change is inactive: 0.006.
On the same count and under the same terms, the value for ZFAND6 (UniProt Q6FIF0) was inactive: -0.059; that for ZER1 (UniProt Q7Z7L7) was inactive: 0.114.
Consider XPNPEP3 (UniProt Q9NQH7), for which the log2 fold change is inactive: 0.
As to ZBED1 (UniProt O96006), the log2 fold change was inactive: -0.021.
As to XPOT (UniProt O43592), the log2 fold change was inactive: -0.011.
Turning to YRDC (UniProt Q86U90), the log2 fold change was inactive: 0.
For YY1 (UniProt P25490), the log2 fold change is inactive: -0.032.
Take ZGPAT (UniProt Q8N5A5): the log2 fold change was inactive: -0.04.
Consider XRCC6 (UniProt P12956), for which the log2 fold change was inactive: -0.007.
Turning to YKT6 (UniProt O15498), the log2 fold change was inactive: -0.003.
Take YARS2 (UniProt Q9Y2Z4): the log2 fold change is inactive: -0.005.
Regarding ZC3H8 (UniProt Q8N5P1), the log2 fold change was inactive: -0.022.
In the case of ZCCHC8 (UniProt Q6NZY4), the log2 fold change was inactive: 0.027.
Regarding YLPM1 (UniProt P49750), the log2 fold change is inactive: -0.023.
ZC3H7B (UniProt Q9UGR2): the log2 fold change is inactive: 0.069.
Turning to YIPF4 (UniProt Q9BSR8), the log2 fold change is inactive: -0.024.
Still for that read-out and setting: then YDJC (UniProt A8MPS7), with inactive: -0.027.
Consider ZBTB21 (UniProt Q9ULJ3), for which the log2 fold change is inactive: 0.029.

Compound in a further assay: Cc1nc(Nc2n[nH]c3c2CN(C(=O)N[C@H](CN(C)C)c2ccccc2)C3(C)C)c2sccc2n1
The assay is described as above. The essentials: as §1
For the target YBX3 (UniProt P16989), the log2 fold change is inactive: -0.009.
As to ZBED8 (UniProt Q8IZ13), the log2 fold change is inactive: -0.066.
The same measure, in the same setting: then XPO7 (UniProt Q9UIA9), with inactive: 0.
With YIPF3 (UniProt Q9GZM5), the log2 fold change was inactive: -0.005.
Turning to XPO6 (UniProt Q96QU8), the log2 fold change was inactive: 0.027.
Consider ZDHHC3 isoform 2 (UniProt Q9NYG2), for which the log2 fold change is inactive: -0.088.
The same measure, in the same setting: the value for ZFPM1 (UniProt Q8IX07) was inactive: -0.075; that for YES1 (UniProt P07947) was inactive: 0.008.
Regarding ZFAND2B (UniProt Q8WV99), the log2 fold change was inactive: 0.056.
For the target XPO1 (UniProt O14980), the log2 fold change was inactive: -0.011.
For ZCCHC3 (UniProt Q9NUD5), the log2 fold change is inactive: 0.039.
For the target YIPF5 isoform 3 (UniProt Q969M3), the log2 fold change is inactive: -0.129.
Still for that read-out and setting: the value for ZC3H18 (UniProt E7ERS3) was inactive: -0.024; that for YBX3 isoform 2 (UniProt P16989) was inactive: 0.013; that for ZC3H4 (UniProt Q9UPT8) was inactive: -0.007.
On the same count and under the same terms, then YJU2 (UniProt Q9BW85), with inactive: -0.013.
Consider ZC3H15 (UniProt Q8WU90), for which the log2 fold change was inactive: -0.019.
YIPF6 (UniProt Q96EC8): the log2 fold change was inactive: 0.053.
With XRCC1 (UniProt P18887), the log2 fold change was inactive: 0.035.
On to ZFR (UniProt Q96KR1), for which the log2 fold change was inactive: 0.024.
On the same count and under the same terms, then YME1L1 (UniProt Q96TA2), with inactive: -0.06; and YTHDC2 (UniProt Q9H6S0), with inactive: -0.001.
For the target ZFAND6 (UniProt Q6FIF0), the log2 fold change was inactive: -0.065.
Turning to ZER1 (UniProt Q7Z7L7), the log2 fold change was inactive: -0.027.
Take XPNPEP3 (UniProt Q9NQH7): the log2 fold change is inactive: -0.03.
Same read-out and setting: then ZBED1 (UniProt O96006), with inactive: -0.028; and XPOT (UniProt O43592), with inactive: -0.017; and YRDC (UniProt Q86U90), with inactive: 0.021.
In the case of YY1 (UniProt P25490), the log2 fold change is inactive: 0.022.
Regarding ZGPAT (UniProt Q8N5A5), the log2 fold change was inactive: 0.028.
In the case of XRCC6 (UniProt P12956), the log2 fold change was inactive: -0.014.
Consider YKT6 (UniProt O15498), for which the log2 fold change is inactive: 0.006.
YARS2 (UniProt Q9Y2Z4): the log2 fold change was inactive: -0.041.
As for ZC3H8 (UniProt Q8N5P1), the log2 fold change is inactive: 0.077.
For ZCCHC8 (UniProt Q6NZY4), the log2 fold change is inactive: -0.006.
For the target YLPM1 (UniProt P49750), the log2 fold change was inactive: -0.192.
Still for that read-out and setting: then ZC3H7B (UniProt Q9UGR2), with inactive: -0.057; and YIPF4 (UniProt Q9BSR8), with inactive: 0.012; and YDJC (UniProt A8MPS7), with inactive: 0.045.
As to ZBTB21 (UniProt Q9ULJ3), the log2 fold change was inactive: -0.026.
